Results: the supplement of paper PMC4604168 (melanoma cell lines)
Some of the results follow. Single values are uncertain, as repeats are few or missing.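 Cells were imaged in 1,536-well plates, and nuclei stained with an antibody against cleaved PARP were counted against all DNA-stained nuclei to give the apoptosis fraction. Screening doses were chosen to leave most cells alive, and resting and induced cleaved-PARP levels differ strongly between cell lines.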

Key:
Test in all cases: cleaved PARP positive nuclei fraction relative to DMSO control; melanoma cells; higher = more apoptosis
Conditions in all cases: library dose: low library concentration; 72 h
WM115 = tested on: WM115
WM1716 = tested on: WM1716
WM1745 = tested on: WM1745
WM3526 = tested on: WM3526
WM3619 = tested on: WM3619
WM451Lu = tested on: WM451Lu

SMILES | cleaved PARP positive nuclei fraction (WM115) | cleaved PARP positive nuclei fraction (WM1716) | cleaved PARP positive nuclei fraction (WM1745) | cleaved PARP positive nuclei fraction (WM3526) | cleaved PARP positive nuclei fraction (WM3619) | cleaved PARP positive nuclei fraction (WM451Lu)
Cc1ccc(Nc2nccc(N(C)c3ccc4c(C)n(C)nc4c3)n2)cc1S(N)(=O)=O [Pazopanib] + CS(=O)(=O)c1ccc(C(=O)Nc2ccc(Cl)c(-c3ccccn3)c2)c(Cl)c1 [vismodegib] (first compound 0.4 µM, partner dose 1 µM) | 113% | 119% | 88.5% | 57.3% | 97.8% | 53.8%
CC[C@]1(O)C[C@H]2CN(CCc3c([nH]c4ccccc34)[C@@](C(=O)OC)(c3cc4c(cc3OC)N(C=O)[C@H]3[C@@](O)(C(=O)OC)[C@H](OC(C)=O)[C@]5(CC)C=CCN6CC[C@]43[C@@H]65)C2)C1 [vincristine] + C=C(c1ccc(C(=O)O)cc1)c1cc2c(cc1C)C(C)(C)CCC2(C)C [Bexarotene] (first compound 0.0001 µM, partner dose 2 µM) | 433% | 76% | 110% | 351% | 142% | 70.6%
CC[C@]1(O)C[C@H]2CN(CCc3c([nH]c4ccccc34)[C@@](C(=O)OC)(c3cc4c(cc3OC)N(C=O)[C@H]3[C@@](O)(C(=O)OC)[C@H](OC(C)=O)[C@]5(CC)C=CCN6CC[C@]43[C@@H]65)C2)C1 [vincristine] + Cn1c(Nc2ccc(C(F)(F)F)cc2)nc2cc(Oc3ccnc(-c4ncc(C(F)(F)F)[nH]4)c3)ccc21 [CHIR265] (first compound 0.0001 µM, partner dose 0.08 µM) | 1200% | 563% | 157% | 209% | 143% | 130%
O=C(Nc1cc(C(F)(F)F)cc(C(F)(F)F)c1)c1cc(Cl)ccc1O + C=CCn1c(=O)c2cnc(Nc3ccc(N4CCN(C)CC4)cc3)nc2n1-c1cccc(C(C)(C)O)n1 [MK1775] (first compound 0.016 µM, partner dose 0.02 µM) | 102% | 83.6% | 99% | 100% | 196% | 127%
Cc1cc(Nc2cc(N3CCN(C)CC3)nc(Sc3ccc(NC(=O)C4CC4)cc3)n2)n[nH]1 [Tozasertib] + COc1ccc(C2=N[C@@H](c3ccc(Cl)cc3)[C@@H](c3ccc(Cl)cc3)N2C(=O)N2CCNC(=O)C2)c(OC(C)C)c1 [Nutlin-3] (first compound 0.006 µM, partner dose 0.1 µM) | 115% | 95.9% | 192% | 52.3% | 108% | 94.2%
Cc1cc(Nc2cc(N3CCN(C)CC3)nc(Sc3ccc(NC(=O)C4CC4)cc3)n2)n[nH]1 [Tozasertib] + Oc1cc(-c2nc(-c3ccccc3)[nH]c2-c2ccncc2)ccc1Cl [L779450] (first compound 0.006 µM, partner dose 0.2 µM) | 112% | 131% | 90.1% | 179% | 94.9% | 244%
Cc1cn(-c2cc(NC(=O)c3ccc(C)c(Nc4nccc(-c5cccnc5)n4)c3)cc(C(F)(F)F)c2)cn1 [nilotinib] + COc1ccc(Cl)c(Nc2nc3ccccc3nc2NS(=O)(=O)c2cccc(NC(=O)C(C)(C)N)c2)c1 [XL147] (first compound 0.2 µM, partner dose 0.8 µM) | 60.2% | 111% | 110% | 34.6% | 90.2% | 133%
COc1cc([C@@H]2c3cc4c(cc3[C@@H](O[C@@H]3O[C@@H]5CO[C@@H](C)O[C@H]5[C@H](O)[C@H]3O)[C@H]3COC(=O)[C@H]23)OCO4)cc(OC)c1O [etoposide] + CC(=O)c1c(C)c2cnc(Nc3ccc(N4CCNCC4)cn3)nc2n(C2CCCC2)c1=O [palbociclib] (first compound 0.02 µM, partner dose 0.04 µM) | 28.7% | 108% | 157% | 117% | 153% | 128%
O=c1[nH]nc(Sc2ncc([N+](=O)[O-])s2)n1-c1ccc2c(c1)OCCO2 + Nc1ccn([C@@H]2O[C@H](CO)[C@@H](O)C2(F)F)c(=O)n1 [gemcitabine] (first compound 0.2 µM, partner dose 0.0004 µM) | 186% | 107% | 125% | 263% | 108% | 200%
N#CC[C@H](C1CCCC1)n1cc(-c2ncnc3[nH]ccc23)cn1 [ruxolitinib] + NC1(c2ccc(-c3nc4ccn5c(=O)[nH]nc5c4cc3-c3ccccc3)cc2)CCC1 [MK2206] (first compound 1 µM, partner dose 0.4 µM) | 158% | 200% | 110% | 91.3% | 95.6% | 95.6%
O=C(Nc1cc(C(F)(F)F)cc(C(F)(F)F)c1)c1cc(Cl)ccc1O + O=C(O)[C@@H]1[O][Sb](=[O])([O][Sb]2(=[O])[O][C@H]([C@H](O)CO)[C@H](O)[C@H](C(=O)O)[O]2)[O][C@H]([C@H](O)CO)[C@@H]1O [stibogluconate] (first compound 0.016 µM, partner dose 2 µM) | 122% | 139% | 108% | 19.7% | 97.3% | 25.3%
O=C(/C=C/c1cccnc1)NCCCCC1CCN(C(=O)c2ccccc2)CC1 + OCCn1cc(-c2cnc3nnn(Cc4ccc5ncccc5c4)c3n2)cn1 [PF04217903] (first compound 0.01 µM, partner dose 1 µM) | 211% | 143% | 75.5% | 60.1% | 80.9% | 75.9%
N#CC[C@H](C1CCCC1)n1cc(-c2ncnc3[nH]ccc23)cn1 [ruxolitinib] + COc1ccc(COc2ccc(Cc3cnc(N)nc3N)cc2OC)cc1 [GW2580] (first compound 1 µM, partner dose 1 µM) | 38.2% | 200% | 92.5% | 65.7% | 220% | 74.9%
Cc1cc(Nc2cc(N3CCN(C)CC3)nc(Sc3ccc(NC(=O)C4CC4)cc3)n2)n[nH]1 [Tozasertib] + NC(=O)c1ccc(N(C(N)=O)c2c(F)cccc2F)nc1-c1ccc(F)cc1F [VX702] (first compound 0.006 µM, partner dose 0.4 µM) | 122% | 73.4% | 116% | 98.1% | 99.4% | 57.7%
CCCCCCCCCCCCCCCCCCOP(=O)([O-])OC1CC[N+](C)(C)CC1 [Perifosine] + Cn1c(=O)n(-c2ccc(C(C)(C)C#N)cc2)c2c3cc(-c4cnc5ccccc5c4)ccc3ncc21 [NVP-BEZ235] (first compound 0.4 µM, partner dose 0.004 µM) | 163% | 35.1% | 87.7% | 70.8% | 108% | 47.4%
Cc1ccc(Nc2nccc(N(C)c3ccc4c(C)n(C)nc4c3)n2)cc1S(N)(=O)=O [Pazopanib] + CC(=O)c1c(C)c2cnc(Nc3ccc(N4CCNCC4)cn3)nc2n(C2CCCC2)c1=O [palbociclib] (first compound 0.4 µM, partner dose 0.04 µM) | 145% | 49.1% | 111% | 69.9% | 115% | 203%
COc1cc([C@@H]2c3cc4c(cc3[C@@H](O[C@@H]3O[C@@H]5CO[C@@H](C)O[C@H]5[C@H](O)[C@H]3O)[C@H]3COC(=O)[C@H]23)OCO4)cc(OC)c1O [etoposide] + CS(=O)(=O)c1ccc(C(=O)Nc2ccc(Cl)c(-c3ccccn3)c2)c(Cl)c1 [vismodegib] (first compound 0.02 µM, partner dose 1 µM) | 121% | 72.6% | 76.9% | 47% | 79.2% | 199%
Cc1cn(-c2cc(NC(=O)c3ccc(C)c(Nc4nccc(-c5cccnc5)n4)c3)cc(C(F)(F)F)c2)cn1 [nilotinib] + COc1ccc(C2=N[C@@H](c3ccc(Cl)cc3)[C@@H](c3ccc(Cl)cc3)N2C(=O)N2CCNC(=O)C2)c(OC(C)C)c1 [Nutlin-3] (first compound 0.2 µM, partner dose 0.1 µM) | 153% | 102% | 99% | 96.9% | 92.2% | 82.1%
Cc1cc(Nc2cc(N3CCN(C)CC3)nc(Sc3ccc(NC(=O)C4CC4)cc3)n2)n[nH]1 [Tozasertib] + CN(c1ncccc1CNc1nc(Nc2ccc3c(c2)CC(=O)N3)ncc1C(F)(F)F)S(C)(=O)=O [PF562271] (first compound 0.006 µM, partner dose 0.08 µM) | 116% | 85.2% | 115% | 43.7% | 88.9% | 56.1%
N#CC[C@H](C1CCCC1)n1cc(-c2ncnc3[nH]ccc23)cn1 [ruxolitinib] + Cc1cn(-c2cc(NC(=O)c3ccc(C)c(Nc4nccc(-c5cccnc5)n4)c3)cc(C(F)(F)F)c2)cn1 [nilotinib] (first compound 1 µM, partner dose 0.2 µM) | 83.2% | 36.1% | 109% | 98.6% | 90.3% | 66.8%
O=c1[nH]nc(Sc2ncc([N+](=O)[O-])s2)n1-c1ccc2c(c1)OCCO2 + Nc1nc(F)nc2c1ncn2[C@@H]1O[C@H](CO)[C@@H](O)[C@@H]1O [fludarabine] (first compound 0.2 µM, partner dose 0.2 µM) | 240% | 104% | 115% | 619% | 105% | 169%
N#CC[C@H](C1CCCC1)n1cc(-c2ncnc3[nH]ccc23)cn1 [ruxolitinib] + Cc1ccc(NC(=O)c2cccc(N(C)C)c2)cc1NC(=O)c1ccc(O)cc1 [ZM336372] (first compound 1 µM, partner dose 2 µM) | 120% | 90.9% | 103% | 55.7% | 96.4% | 83.5%
O=c1[nH]nc(Sc2ncc([N+](=O)[O-])s2)n1-c1ccc2c(c1)OCCO2 + CN1CCN(c2ccc3nc(-c4c(N)c5c(F)cccc5[nH]c4=O)[nH]c3c2)CC1 [Dovitinib] (first compound 0.2 µM, partner dose 0.1 µM) | 106% | 78.3% | 97.1% | 44.2% | 76.3% | 36.3%
Cc1cc(Nc2cc(N3CCN(C)CC3)nc(Sc3ccc(NC(=O)C4CC4)cc3)n2)n[nH]1 [Tozasertib] + Nc1nc(F)nc2c1ncn2[C@@H]1O[C@H](CO)[C@@H](O)[C@@H]1O [fludarabine] (first compound 0.006 µM, partner dose 0.2 µM) | 82.3% | 118% | 119% | 545% | 95.3% | 358%

Part of the list above, reformatted:
CC[C@]1(O)C[C@H]2CN(CCc3c([nH]c4ccccc34)[C@@](C(=O)OC)(c3cc4c(cc3OC)N(C=O)[C@H]3[C@@](O)(C(=O)OC)[C@H](OC(C)=O)[C@]5(CC)C=CCN6CC[C@]43[C@@H]65)C2)C1 [vincristine] + Cn1c(Nc2ccc(C(F)(F)F)cc2)nc2cc(Oc3ccnc(-c4ncc(C(F)(F)F)[nH]4)c3)ccc21 [CHIR265] (first compound 0.0001 µM, partner dose 0.08 µM)
  cleaved PARP positive nuclei fraction (WM115): 1200%
  cleaved PARP positive nuclei fraction (WM1716): 563%
  cleaved PARP positive nuclei fraction (WM1745): 157%
  cleaved PARP positive nuclei fraction (WM3526): 209%
  cleaved PARP positive nuclei fraction (WM3619): 143%
  cleaved PARP positive nuclei fraction (WM451Lu): 130%
Cc1cn(-c2cc(NC(=O)c3ccc(C)c(Nc4nccc(-c5cccnc5)n4)c3)cc(C(F)(F)F)c2)cn1 [nilotinib] + COc1ccc(C2=N[C@@H](c3ccc(Cl)cc3)[C@@H](c3ccc(Cl)cc3)N2C(=O)N2CCNC(=O)C2)c(OC(C)C)c1 [Nutlin-3] (first compound 0.2 µM, partner dose 0.1 µM)
  cleaved PARP positive nuclei fraction (WM115): 153%
  cleaved PARP positive nuclei fraction (WM1716): 102%
  cleaved PARP positive nuclei fraction (WM1745): 99%
  cleaved PARP positive nuclei fraction (WM3526): 96.9%
  cleaved PARP positive nuclei fraction (WM3619): 92.2%
  cleaved PARP positive nuclei fraction (WM451Lu): 82.1%
